For 2 substances, binding results are on record in paper PMC10174618, “Monoterpenoid aryl hydrocarbon receptor allosteric antagonists protect against ultraviolet skin damage in female mice” (Nature Communications, 2023).

By UniProt entry, the sequences of proteins in these tests, tags left out. Where a name states a change or a piece, a line headed by the entry shows the natural chain unless it says otherwise. Residues count along the entry.
UniProt P35869: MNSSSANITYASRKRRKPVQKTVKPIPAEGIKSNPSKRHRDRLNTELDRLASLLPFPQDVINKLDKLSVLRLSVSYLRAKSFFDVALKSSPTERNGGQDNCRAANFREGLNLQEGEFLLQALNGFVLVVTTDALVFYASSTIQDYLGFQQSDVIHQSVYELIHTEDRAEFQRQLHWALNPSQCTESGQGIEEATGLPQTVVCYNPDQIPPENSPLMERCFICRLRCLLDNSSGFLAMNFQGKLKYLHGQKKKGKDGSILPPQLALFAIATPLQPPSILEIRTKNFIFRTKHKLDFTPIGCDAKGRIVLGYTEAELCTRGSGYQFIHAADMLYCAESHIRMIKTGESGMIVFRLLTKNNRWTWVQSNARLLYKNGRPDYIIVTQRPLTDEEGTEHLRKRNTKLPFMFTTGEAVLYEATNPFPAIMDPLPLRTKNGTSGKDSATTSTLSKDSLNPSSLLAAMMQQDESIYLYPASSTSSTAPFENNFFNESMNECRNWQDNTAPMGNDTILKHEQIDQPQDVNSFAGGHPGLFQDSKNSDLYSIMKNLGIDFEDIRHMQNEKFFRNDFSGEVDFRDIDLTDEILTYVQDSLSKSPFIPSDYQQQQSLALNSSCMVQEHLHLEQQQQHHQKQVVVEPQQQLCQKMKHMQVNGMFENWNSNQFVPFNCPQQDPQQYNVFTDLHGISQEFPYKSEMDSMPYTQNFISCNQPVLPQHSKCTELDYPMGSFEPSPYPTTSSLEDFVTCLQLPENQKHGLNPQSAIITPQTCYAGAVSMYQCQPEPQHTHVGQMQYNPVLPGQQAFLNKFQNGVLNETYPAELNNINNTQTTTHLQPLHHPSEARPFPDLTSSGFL
aryl hydrocarbon receptor (AhR) (human (endogenous in LS180)): residues 11-848 of P35869
His-AhR(23-273): residues 23-273 of P35869
UniProt P27540: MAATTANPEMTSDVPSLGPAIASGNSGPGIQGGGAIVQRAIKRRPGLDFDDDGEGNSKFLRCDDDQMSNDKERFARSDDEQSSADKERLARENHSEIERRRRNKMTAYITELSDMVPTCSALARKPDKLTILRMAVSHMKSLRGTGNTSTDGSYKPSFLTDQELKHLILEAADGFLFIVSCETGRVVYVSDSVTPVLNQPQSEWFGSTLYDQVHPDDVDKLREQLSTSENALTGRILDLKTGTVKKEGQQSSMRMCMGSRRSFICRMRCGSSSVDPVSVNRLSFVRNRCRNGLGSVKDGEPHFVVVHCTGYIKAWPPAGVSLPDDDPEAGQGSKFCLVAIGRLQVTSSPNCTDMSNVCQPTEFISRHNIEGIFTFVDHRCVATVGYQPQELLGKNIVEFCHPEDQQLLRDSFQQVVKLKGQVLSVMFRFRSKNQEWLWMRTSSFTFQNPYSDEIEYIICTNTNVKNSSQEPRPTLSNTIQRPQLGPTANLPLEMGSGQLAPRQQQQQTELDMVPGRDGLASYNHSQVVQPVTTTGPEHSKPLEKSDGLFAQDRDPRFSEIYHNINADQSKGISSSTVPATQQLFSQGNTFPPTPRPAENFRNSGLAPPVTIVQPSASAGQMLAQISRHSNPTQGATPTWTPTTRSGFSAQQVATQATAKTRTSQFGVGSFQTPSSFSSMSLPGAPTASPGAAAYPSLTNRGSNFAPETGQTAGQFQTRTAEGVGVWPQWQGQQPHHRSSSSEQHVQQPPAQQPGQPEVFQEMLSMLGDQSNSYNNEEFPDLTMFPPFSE

Assay [1] addresses aryl hydrocarbon receptor (AhR) (human (endogenous in LS180)) (UniProt P35869). The assay is described as follows: co-IP; anti-AhR antibody covalently coupled to resin (Pierce Co-Immunoprecipitation Kit), incubated with lysate overnight at 4 °C; lysates of LS180 cells incubated 90 min at 37 °C with TCDD (20 nM), BaP (7 μM) or FICZ (8 nM), with or without carvones (1000 μM) or monoterpenoid analogs; blot for ….

The next assay deals with His-AhR(23-273) (human) (UniProt P35869). The experiment in a line: pull-down; co-purification: His-AhR(23-273) and FLAG-Arnt(85-345) coexpressed in E. coli, lysate passed over HisPur Cobalt columns; final buffer 20 mM HEPES pH 7.0, 300 mM NaCl, 5% glycerol; both proteins verified by Western blot (anti-His-tag, anti-FLAG-tag). (In western blotting, separated proteins are transferred to a membrane and probed.)

Results are given in words; binding and its absence hold for the method and conditions named. In cells and extracts the contact can be indirect. Some entries that bind do so weakly or less than the wild type.

Take “AhR nuclear translocator (ARNT) (from UniProt P27540 1-789)”: the binding entry in assay [1] was “binds”.

For the substance “FLAG-Arnt(85-345) (from UniProt P53762 85-345) (domain or fragment)”, the binding result with His-AhR(23-273) (human) was “binds”.
